{"sequences": {"note": "Sequences of proteins named here, by UniProt entry; tags and fusion partners are left off.", "UniProt Q9Z351": "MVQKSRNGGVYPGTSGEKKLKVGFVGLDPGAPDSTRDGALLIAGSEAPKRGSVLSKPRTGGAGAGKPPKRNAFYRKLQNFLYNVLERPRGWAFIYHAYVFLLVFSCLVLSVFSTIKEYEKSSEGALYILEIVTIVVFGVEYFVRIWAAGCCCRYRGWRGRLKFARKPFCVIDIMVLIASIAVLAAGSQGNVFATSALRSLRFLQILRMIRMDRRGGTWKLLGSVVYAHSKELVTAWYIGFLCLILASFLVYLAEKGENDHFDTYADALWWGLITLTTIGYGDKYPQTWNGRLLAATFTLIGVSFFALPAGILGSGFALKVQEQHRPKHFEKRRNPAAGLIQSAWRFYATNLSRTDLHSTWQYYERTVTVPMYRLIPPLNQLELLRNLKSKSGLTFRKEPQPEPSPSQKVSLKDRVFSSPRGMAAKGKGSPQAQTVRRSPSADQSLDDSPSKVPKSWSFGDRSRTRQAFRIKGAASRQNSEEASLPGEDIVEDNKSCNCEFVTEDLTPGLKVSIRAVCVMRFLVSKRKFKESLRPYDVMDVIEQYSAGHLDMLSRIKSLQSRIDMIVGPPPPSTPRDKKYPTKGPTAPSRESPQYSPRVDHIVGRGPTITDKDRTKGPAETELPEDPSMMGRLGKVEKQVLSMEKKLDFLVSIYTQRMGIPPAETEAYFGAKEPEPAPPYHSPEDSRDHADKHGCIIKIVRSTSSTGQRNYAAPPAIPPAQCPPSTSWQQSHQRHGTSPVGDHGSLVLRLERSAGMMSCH"}, "source": "paper doi:10.1101/2025.05.19.654996", "biological_target": "T1, neuronal pentraxin1 (NPTX1) (mouse (endogenous in DG tissue)) (UniProt Q62443)", "T1 sequence": "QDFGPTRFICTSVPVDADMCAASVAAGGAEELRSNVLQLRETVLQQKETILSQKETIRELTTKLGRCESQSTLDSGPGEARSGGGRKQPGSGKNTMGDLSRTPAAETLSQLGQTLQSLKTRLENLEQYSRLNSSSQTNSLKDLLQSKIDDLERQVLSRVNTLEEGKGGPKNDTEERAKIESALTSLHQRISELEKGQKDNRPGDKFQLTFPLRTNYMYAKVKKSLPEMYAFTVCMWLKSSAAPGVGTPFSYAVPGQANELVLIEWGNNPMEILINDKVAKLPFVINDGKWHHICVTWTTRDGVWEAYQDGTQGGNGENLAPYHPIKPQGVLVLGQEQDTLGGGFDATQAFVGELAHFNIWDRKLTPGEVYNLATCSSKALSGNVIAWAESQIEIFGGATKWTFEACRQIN", "assay": "co-IP", "note": "These are yes or no findings as the source states them, for the method shown. Binding seen in cells or lysates may run through a third protein. Some entries that bind do so weakly or less than the wild type."}
{"substance": "KCNQ2 (Kv7.2) (from UniProt Q9Z351 1-759)", "values": [{"measurement": "binding", "value": "binds"}]}
